From article PMC9230529
Results are given in words; binding and its absence hold for the method and conditions named. Binding seen in cells or lysates may run through a third protein. Some binding calls cover weakened binding; strength is not graded here.

By UniProt entry, the sequences of proteins in these tests, tags left out. Residues count along the entry.
UniProt P08637, residues 17-254: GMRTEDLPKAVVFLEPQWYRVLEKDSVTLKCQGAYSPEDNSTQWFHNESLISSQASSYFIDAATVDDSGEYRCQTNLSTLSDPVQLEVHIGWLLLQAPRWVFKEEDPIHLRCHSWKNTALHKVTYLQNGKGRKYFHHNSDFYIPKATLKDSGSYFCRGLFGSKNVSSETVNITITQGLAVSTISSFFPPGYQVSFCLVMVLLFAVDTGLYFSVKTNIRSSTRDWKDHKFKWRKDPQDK
UniProt P0DTC8, residues 16-121: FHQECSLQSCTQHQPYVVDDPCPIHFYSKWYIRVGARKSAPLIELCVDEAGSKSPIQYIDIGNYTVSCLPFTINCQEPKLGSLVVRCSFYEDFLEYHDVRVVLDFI

Biological target: Flag-tagged CD16a (human) (UniProt P08637)
Experiment: co-IP

Substance: StrepII-tagged ORF8 (from UniProt P0DTC8 16-121)
- binding: binds
